# According to PubChem BioAssay AID652057 (Broad Institute, 2013):
# The campaign covered roughly 1,400 compounds. About 1,000 (71%) were called active. So high a share suggests a set chosen from earlier hits. The source calls these results inconclusive, neither active nor inactive. How the calls were made is not given here.
# Assay: inhibitors of HIV Env-driven cell fusion, dose response, cherry-pick (AID 652057)
# Conditions: HeLa-JRFL Env/CEM21 cell fusion, luciferase; at 35 µM (top of the series)
row,SMILES,"activity change, negative = inhibition"
1,N=c1nc2n(cc1F)C1OC(CO)C(O)C1O2 (configuration not stated),inconclusive: -40.7%
2,O=c1[nH]c(=O)n([C@H]2C[C@H](O)[C@@H](CO)O2)cc1F,inconclusive: -43.4%
